Results deposited as PubChem BioAssay AID720505 (Drosophila RNAi Screening Center, 2013)
Aim: 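Knock-downs that reduce calcium influx once internal stores are emptied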 (primary screen). System: Drosophila S2R+ cells. Reagents: long dsRNA against Drosophila genes. Challenge: thapsigargin (2 µM) in calcium-free buffer to empty internal stores, then 2 mM calcium added back. Read-out: 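Fluo-4 signal in 384-well plates read on a FLIPR after thapsigargin (2 µM, calcium-free) store depletion and 2 mM calcium add-back; unnormalised mean endpoint per well; screen run twice, selected wells retested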. Reading the numbers: calcium signal and retest calcium signal: higher = more calcium entry after store depletion. Active means: 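About 1500 genes called as lowering calcium entry, by varying amounts, judged against per-plate control wells with STIM1 as positive and Rho1 as negative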. Calls: active = called as lowering calcium entry; inactive = not called.
In all, the deposit lists about 20,000 reagents; below is an unselected part of those with a known target gene and a result. Of all reagents, about 2,100 (10%) were called active. 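Raw plate signals without normalisation; calls rest on control-based scores that were not deposited; replicate 2 separates called from uncalled poorly.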 No sequences are given here. Not stated in the record: the amount of reagent, the time to read-out.

predicted target	DRSC id	calcium signal, replicate 1	calcium signal, replicate 2	retest calcium signal, replicate 1	retest calcium signal, replicate 2	activity call
AANATL6	DRSC06773	214	110			inactive
CG9691	DRSC18441	72.3	120			active
Bug22	DRSC02842	227	184			inactive
CG15914	DRSC19739	129	141			inactive
kek2	DRSC03552	186	121			inactive
CG15635	DRSC00470	62.5	125	112	105	active
CG15635	DRSC22873	114	157			inactive
lectin-30A	DRSC02560	167	161			inactive
Kmn1	DRSC19666	84.4	97.8			inactive
CG44251	DRSC06856	126	132			inactive
Arl5	DRSC10785	78.7	90			inactive
PNPase	DRSC14304	81.3	84.5			inactive
Hira	DRSC18672	60	175			active
mus301	DRSC10939	66.7	54.5			active
lush	DRSC11364	97.8	106			inactive
Rpn5	DRSC12367	109	83			inactive
uzip	DRSC04722	127	84.1			inactive
CG9447	DRSC05008	87.3	83			inactive
Sas10	DRSC18355	155	119			inactive
Klp61F	DRSC08671	52.2	57.1			active
CG13606	DRSC14609	226	169			inactive
Sec63	DRSC11002	91.5	50.3	104	113	inactive
CG4328	DRSC10410	92.5	90.3			inactive
CG4328	DRSC23146	149	165			inactive
CG11598	DRSC14331	71.3	168			active
CG43317	DRSC15000	113	149			inactive
Sec16	DRSC19788	72	92			inactive
Sec16	DRSC19858	99	98.1			inactive
CG8569	DRSC07214	139	145			inactive
CG13192	DRSC06317	99.8	142			inactive
CG13288	DRSC09962	87.2	81.7			inactive
aust	DRSC02558	179	136			inactive
Fer3HCH	DRSC19892	125	104			inactive
CG16743	DRSC02514	185	207			inactive
veil	DRSC06892	120	133			inactive
H15	DRSC03339	58.7	89.7			active
H15	DRSC22199	122	214			inactive
CG43610	DRSC00949	64.6	116			active
Mf	DRSC16120	114	208			inactive
CG34278	DRSC13208					active
WDR79	DRSC03159	112	166			inactive
E(spl)mbeta-HLH	DRSC16697	91.8	105			inactive

The list goes on, starting with the last 10 of the part before.
predicted target	DRSC id	calcium signal, replicate 1	calcium signal, replicate 2	retest calcium signal, replicate 1	retest calcium signal, replicate 2	activity call
Fer3HCH	DRSC19892	125	104			inactive
CG16743	DRSC02514	185	207			inactive
veil	DRSC06892	120	133			inactive
H15	DRSC03339	58.7	89.7			active
H15	DRSC22199	122	214			inactive
CG43610	DRSC00949	64.6	116			active
Mf	DRSC16120	114	208			inactive
CG34278	DRSC13208					active
WDR79	DRSC03159	112	166			inactive
E(spl)mbeta-HLH	DRSC16697	91.8	105			inactive
CG16739	DRSC06621	101	80.6			inactive
CG5676	DRSC02875	111	128			inactive
CG17283	DRSC15219	146	179			inactive
CG30016	DRSC05242	83.5	147			inactive
mRpL4	DRSC03562	106	89.8			inactive
CG12986	DRSC19506	89.9	126			inactive
RpLP2	DRSC07539	114	131			inactive
CG6204	DRSC15991	192	154			inactive
CG11975	DRSC14452	108	171			inactive
CG13056	DRSC09937	81.7	165			inactive
CG1513	DRSC05194	114	138			inactive
CG1513	DRSC06553	164	149			inactive
CG1513	DRSC06554	49.5	97.8			active
loh	DRSC01122	71.2	215			active
loh	DRSC02943	196	167			inactive
Arl8	DRSC16334	91.6	149			inactive
I-2	DRSC11194	81.7	92.8			inactive
I-2	DRSC23300	177	171			inactive
nst	DRSC09755	124	85.4			inactive
Ndc80	DRSC20221	99.7	120			inactive
Ndc80	DRSC21726	118	79.7			inactive
pasi1	DRSC16299	59.9	159	133	9289	active
pasi1	DRSC22385	77.9	237			inactive
Arf6	DRSC05921	105	158			inactive
CG15042	DRSC19618	98.4	120			inactive
PGRP-SB2	DRSC11092	105	184			inactive
Lerp	DRSC14750	126	118			inactive
Lerp	DRSC14751	92.8	109			inactive
Lerp	DRSC16030	105	125			inactive
Lerp	DRSC16031	111	135			inactive
Hdc	DRSC07439	152	208			inactive
Dlc90F	DRSC16649	160	290			inactive
mRpL1	DRSC16251	127	132			inactive
CG5056	DRSC02808	182	146			inactive
Diedel3	DRSC19544	110	90.4			inactive
CG4822	DRSC00669	72.7	121			inactive
Mal-A6	DRSC07233	177	181			inactive
simj	DRSC10942	103	98.2			inactive
Enoph	DRSC12201	69.8	98.1			active
CG13062	DRSC09945	87.6	101			inactive
CG5854	DRSC15894	79.3	123			inactive
